From the supplement of paper PMC10849652
The other results are listed elsewhere or left out.

Sequences of proteins named here, by UniProt entry; tags and fusion partners are left off. A change or cut given only in a name is not applied to a line headed by its entry.
UniProt P54198, whole entry, looked up: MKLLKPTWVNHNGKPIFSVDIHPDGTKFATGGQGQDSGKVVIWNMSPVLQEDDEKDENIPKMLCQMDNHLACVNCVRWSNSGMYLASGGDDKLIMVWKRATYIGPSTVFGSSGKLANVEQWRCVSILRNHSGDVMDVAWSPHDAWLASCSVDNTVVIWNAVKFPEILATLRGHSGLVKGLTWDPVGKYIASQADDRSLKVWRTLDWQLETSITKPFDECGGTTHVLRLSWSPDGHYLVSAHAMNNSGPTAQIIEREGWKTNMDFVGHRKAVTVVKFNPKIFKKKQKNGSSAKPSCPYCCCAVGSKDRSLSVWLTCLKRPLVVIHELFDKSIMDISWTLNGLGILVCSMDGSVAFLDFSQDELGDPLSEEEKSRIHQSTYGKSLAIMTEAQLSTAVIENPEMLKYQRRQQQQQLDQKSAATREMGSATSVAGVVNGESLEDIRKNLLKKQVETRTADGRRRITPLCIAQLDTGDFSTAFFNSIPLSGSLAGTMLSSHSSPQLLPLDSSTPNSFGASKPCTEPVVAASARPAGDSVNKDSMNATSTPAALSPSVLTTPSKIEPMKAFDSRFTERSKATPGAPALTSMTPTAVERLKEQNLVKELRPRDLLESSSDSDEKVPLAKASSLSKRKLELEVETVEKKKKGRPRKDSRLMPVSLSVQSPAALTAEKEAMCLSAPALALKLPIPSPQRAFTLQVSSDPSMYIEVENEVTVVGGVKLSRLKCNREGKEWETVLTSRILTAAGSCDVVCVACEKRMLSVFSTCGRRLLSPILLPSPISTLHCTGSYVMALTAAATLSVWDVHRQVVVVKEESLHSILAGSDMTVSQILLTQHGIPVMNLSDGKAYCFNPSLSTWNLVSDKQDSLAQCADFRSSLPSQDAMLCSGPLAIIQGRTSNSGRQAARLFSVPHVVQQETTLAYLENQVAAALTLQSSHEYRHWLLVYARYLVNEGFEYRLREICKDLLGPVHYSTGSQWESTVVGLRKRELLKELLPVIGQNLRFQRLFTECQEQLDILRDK
UniProt Q9UGU5: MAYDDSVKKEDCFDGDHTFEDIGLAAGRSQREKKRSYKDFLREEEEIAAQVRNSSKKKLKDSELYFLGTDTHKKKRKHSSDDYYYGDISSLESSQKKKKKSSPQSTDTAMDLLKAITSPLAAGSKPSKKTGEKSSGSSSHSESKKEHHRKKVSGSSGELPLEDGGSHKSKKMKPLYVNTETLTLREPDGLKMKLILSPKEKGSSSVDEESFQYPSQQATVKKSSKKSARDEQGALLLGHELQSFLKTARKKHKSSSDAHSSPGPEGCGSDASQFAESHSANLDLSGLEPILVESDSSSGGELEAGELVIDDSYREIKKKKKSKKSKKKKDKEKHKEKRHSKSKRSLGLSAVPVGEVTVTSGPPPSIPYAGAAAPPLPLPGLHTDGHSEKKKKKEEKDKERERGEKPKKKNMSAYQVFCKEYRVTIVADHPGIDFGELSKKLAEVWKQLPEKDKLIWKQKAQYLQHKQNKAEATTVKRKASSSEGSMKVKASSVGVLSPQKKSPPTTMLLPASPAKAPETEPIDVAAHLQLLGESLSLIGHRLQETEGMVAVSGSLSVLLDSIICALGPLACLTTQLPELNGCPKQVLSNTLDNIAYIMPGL
UniProt Q9P2P5: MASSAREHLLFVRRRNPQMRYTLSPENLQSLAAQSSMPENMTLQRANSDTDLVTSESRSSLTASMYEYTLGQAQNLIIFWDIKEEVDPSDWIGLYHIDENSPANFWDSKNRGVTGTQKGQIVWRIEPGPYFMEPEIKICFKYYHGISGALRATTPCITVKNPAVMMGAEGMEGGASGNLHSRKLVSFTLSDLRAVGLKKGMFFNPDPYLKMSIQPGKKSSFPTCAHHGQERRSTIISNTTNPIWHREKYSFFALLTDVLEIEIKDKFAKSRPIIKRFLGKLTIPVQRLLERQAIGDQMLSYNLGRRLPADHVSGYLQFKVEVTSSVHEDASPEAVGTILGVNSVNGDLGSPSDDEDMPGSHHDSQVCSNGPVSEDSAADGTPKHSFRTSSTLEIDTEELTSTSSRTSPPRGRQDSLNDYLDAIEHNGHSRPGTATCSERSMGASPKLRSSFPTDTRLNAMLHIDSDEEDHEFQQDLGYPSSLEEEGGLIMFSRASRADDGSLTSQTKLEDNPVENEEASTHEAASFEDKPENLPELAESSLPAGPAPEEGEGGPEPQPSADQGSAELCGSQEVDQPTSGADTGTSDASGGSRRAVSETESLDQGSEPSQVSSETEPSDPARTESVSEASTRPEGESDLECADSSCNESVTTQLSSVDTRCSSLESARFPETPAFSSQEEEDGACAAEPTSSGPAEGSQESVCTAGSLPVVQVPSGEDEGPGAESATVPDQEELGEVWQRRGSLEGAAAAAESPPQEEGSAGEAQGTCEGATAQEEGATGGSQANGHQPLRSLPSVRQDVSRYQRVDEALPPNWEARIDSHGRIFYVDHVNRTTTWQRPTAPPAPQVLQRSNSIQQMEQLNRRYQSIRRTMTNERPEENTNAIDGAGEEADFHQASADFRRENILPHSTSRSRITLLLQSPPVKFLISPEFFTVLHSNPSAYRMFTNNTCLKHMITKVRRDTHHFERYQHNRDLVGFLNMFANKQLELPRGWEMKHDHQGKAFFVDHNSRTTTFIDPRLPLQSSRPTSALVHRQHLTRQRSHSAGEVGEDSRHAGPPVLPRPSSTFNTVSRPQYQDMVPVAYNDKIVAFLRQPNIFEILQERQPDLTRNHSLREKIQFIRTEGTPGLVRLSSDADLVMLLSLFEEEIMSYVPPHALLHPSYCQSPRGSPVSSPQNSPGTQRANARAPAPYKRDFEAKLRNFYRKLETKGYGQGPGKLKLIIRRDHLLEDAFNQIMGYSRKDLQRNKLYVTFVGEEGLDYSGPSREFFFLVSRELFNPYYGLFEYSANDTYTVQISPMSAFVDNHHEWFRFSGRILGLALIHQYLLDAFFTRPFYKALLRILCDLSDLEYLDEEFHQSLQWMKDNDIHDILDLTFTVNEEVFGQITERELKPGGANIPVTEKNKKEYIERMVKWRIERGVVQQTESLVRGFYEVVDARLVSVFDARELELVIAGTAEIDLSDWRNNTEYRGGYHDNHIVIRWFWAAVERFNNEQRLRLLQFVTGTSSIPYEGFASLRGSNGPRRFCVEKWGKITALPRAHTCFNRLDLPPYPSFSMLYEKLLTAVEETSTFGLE
UniProt Q96ED9: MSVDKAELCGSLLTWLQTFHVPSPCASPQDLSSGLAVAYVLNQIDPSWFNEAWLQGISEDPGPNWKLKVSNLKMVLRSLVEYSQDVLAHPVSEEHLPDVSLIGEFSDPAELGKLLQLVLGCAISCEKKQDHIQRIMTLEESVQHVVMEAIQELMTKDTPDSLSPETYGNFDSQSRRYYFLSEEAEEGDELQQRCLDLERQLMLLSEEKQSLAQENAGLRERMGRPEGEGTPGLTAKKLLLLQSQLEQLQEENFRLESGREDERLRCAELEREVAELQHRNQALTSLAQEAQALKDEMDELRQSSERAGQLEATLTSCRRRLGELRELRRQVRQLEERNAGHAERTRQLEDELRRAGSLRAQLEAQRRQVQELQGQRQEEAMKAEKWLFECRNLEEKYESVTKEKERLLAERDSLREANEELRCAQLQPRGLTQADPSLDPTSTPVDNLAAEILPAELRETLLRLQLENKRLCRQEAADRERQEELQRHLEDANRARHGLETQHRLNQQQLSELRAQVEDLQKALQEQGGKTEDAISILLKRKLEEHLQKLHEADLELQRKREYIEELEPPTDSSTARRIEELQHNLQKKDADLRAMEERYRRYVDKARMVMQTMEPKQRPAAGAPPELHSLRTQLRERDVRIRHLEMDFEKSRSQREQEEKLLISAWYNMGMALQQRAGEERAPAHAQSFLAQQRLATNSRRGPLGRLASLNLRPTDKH
UniProt O75506: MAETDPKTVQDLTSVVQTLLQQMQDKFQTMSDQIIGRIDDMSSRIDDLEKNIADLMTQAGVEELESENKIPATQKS
UniProt Q15651: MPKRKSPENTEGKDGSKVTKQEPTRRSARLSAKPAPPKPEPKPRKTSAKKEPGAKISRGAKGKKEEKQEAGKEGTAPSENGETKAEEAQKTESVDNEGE
UniProt Q14469: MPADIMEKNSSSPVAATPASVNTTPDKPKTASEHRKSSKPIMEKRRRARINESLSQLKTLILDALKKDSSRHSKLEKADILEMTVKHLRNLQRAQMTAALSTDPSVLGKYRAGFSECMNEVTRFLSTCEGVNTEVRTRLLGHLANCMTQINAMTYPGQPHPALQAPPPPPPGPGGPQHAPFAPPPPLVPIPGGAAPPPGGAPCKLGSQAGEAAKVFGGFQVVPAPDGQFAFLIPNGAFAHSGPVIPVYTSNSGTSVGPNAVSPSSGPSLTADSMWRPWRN
UniProt O75146: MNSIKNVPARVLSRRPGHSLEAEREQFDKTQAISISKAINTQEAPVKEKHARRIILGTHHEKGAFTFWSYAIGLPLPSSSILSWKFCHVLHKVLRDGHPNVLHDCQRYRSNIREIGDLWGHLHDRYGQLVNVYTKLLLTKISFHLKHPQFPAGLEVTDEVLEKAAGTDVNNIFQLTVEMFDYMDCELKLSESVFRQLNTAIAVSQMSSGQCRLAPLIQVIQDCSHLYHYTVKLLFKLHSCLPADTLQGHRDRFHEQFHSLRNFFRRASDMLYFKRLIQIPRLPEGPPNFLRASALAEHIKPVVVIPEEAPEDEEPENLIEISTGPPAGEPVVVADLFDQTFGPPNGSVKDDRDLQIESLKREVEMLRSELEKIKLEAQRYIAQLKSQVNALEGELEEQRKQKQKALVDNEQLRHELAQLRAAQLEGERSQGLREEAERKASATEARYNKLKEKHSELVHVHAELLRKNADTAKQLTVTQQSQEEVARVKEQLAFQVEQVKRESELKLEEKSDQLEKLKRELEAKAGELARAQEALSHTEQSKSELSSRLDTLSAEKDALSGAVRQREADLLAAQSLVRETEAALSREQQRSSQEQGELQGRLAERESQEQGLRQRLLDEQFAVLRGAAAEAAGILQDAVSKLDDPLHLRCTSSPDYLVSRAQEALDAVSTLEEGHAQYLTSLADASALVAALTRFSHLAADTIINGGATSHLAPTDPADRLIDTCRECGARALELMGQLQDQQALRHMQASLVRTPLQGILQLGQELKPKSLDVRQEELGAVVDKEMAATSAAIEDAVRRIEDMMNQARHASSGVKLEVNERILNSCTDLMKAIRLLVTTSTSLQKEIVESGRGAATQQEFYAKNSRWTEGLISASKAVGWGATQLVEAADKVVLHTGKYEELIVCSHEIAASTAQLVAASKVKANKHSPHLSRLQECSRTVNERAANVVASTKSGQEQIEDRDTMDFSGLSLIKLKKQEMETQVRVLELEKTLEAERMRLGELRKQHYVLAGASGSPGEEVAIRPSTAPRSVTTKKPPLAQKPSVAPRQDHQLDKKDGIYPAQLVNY
UniProt P56937: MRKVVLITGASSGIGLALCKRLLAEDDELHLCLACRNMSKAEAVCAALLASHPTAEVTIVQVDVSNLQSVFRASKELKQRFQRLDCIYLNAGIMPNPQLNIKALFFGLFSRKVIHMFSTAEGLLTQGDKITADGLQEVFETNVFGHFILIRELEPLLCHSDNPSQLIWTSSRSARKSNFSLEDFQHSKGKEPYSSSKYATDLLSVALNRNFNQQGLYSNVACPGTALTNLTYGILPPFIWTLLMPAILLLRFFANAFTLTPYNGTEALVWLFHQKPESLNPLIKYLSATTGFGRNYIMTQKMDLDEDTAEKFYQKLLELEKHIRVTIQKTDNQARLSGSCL
UniProt P30519: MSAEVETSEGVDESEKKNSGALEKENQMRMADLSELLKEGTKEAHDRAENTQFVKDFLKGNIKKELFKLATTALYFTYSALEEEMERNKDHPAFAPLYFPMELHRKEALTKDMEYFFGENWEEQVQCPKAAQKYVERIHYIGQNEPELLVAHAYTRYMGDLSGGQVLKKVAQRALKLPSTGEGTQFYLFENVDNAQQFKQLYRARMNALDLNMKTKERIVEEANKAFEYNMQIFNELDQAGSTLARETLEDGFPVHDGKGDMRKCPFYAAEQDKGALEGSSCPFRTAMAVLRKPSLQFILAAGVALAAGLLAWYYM

Experiments:
Assay in all cases: log2 fold change, soluble protein after heating vs DMSO (PISA); higher = thermal stabilisation; K562 lysate, 10 uM; active = over 0.2 and 3.5 SD of the protein, either way, in both replicates (recomputed)
[1] = compound: C#Cc1cccc(Nc2ncnc3cc(OCCOC)c(OCCOC)cc23)c1 [erlotinib]
How it was run: (§1)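 To prepare the extract, K562 pellets were dounce-homogenised in PBS pH 7.4 with 1 mM MgCl2, giving crude material at 1 mg/mL protein. This was treated with 10 μM compound for 30 min, then heated in aliquots for 3 min over 48°C-58°C before pooling and addition of NP-40 to 0.5% at 4°C. Centrifugation at 21,000xg for 90 min left soluble protein in the supernatant, which TMTpro 16plex LC-MS/MS quantified with equalised channel sums. Results are log-two fold changes in thermal stability compared with solvent controls, from duplicates.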

[2] = compound: C/C(=N\NC(=O)C1=CC(=CC=C1)S(=O)(=O)N2CCOCC2)/C3=C(C=CC(=C3)Cl)O
How it was run: as §1

[3] = compound: C1=CC(=CC=C1C2=NC3=C(N2)C=C(C=C3)C(=O)N)OC4=CC=C(C=C4)Cl
How it was run: as §1

[4] = compound: C1=CC2=C(C=CC(=C2)/C=C\3/C(=O)NC(=NCC4=CC=CS4)S3)N=C1
How it was run: as §1

[5] = compound: C1=CC=C(C=C1)C2=NC(=C(N2)C3=CC=NC=C3)C4=CC(=C(C=C4)Cl)O
How it was run: as §1

[6] = compound: C1=CC=C2C(=C1)C3=NNC4=CC=CC(=C43)C2=O
How it was run: as §1

[7] = compound: C1CCN(C1)C(=O)NC2=CC=CC(=C2)NC3=NC=C(C(=N3)NCCC4=CN=CN4)Br
How it was run: as §1

[8] = compound: C1CN(CCC1(CC2=CC=C(C=C2)Cl)N)C3=NC=NC4=C3C=CN4
How it was run: as §1

[9] = compound: C1COCCN1CCN2C3=CC=CC=C3N=C2NC(=O)C4=CC(=CC=C4)[N+](=O)[O-] [IRAK-1-4 Inhibitor I]
How it was run: as §1

[10] = compound: CC(=O)c1cnc2ccc(-c3cc(Cl)c(O)c(Cl)c3)nc2c1N[C@H]1CC[C@H](CN(C)C)CC1
How it was run: as §1

[11] = compound: CC(C)(C)Cn1c(N)nc2ccc(-c3[nH]c(C(C)(C)C)nc3-c3ccc(F)cc3)nc21 [ralimetinib]
How it was run: as §1

[12] = compound: CC(C)(O)CC(=O)NCCn1ccc2ncnc(Nc3ccc(Oc4cccc(C(F)(F)F)c4)c(Cl)c3)c21
How it was run: as §1

[13] = compound: CC(C)C1=C2N=C(C=C(N2N=C1)NCC3=CC=CC=C3)NCCCCCCN
How it was run: as §1

[14] = compound: CC1=C(C(CC(=O)N1)C2=CC=C(C=C2)C(F)(F)F)C(=O)NC3=C(C=C4C(=C3)C=NN4)F
How it was run: as §1

[15] = compound: CC1=C(C2=C(C=C1)C(=O)C3=CC=CC=C3N2CCCN)C
How it was run: as §1

[16] = compound: CC1=C(C=C(C=C1)NC(=O)C2=CC(=CC=C2)C(C)(C)C#N)NC3=CC4=C(C=C3)N=CN(C4=O)C
How it was run: as §1

[17] = compound: CC1=C(C=C(C=C1)NC(=O)C2=CC(=CC=C2)N(C)C)NC(=O)C3=CC=C(C=C3)O
How it was run: as §1

[18] = compound: CC1=CC=C(C=C1)SC2=C3C=C(SC3=CN=C2)C(=O)N
How it was run: as §1

[19] = compound: C1=CC2=NC=CN=C2C=C1/C=C/3\C(=O)NC(=O)S3
How it was run: as §1

[20] = compound: C=CC(=O)N1CCC[C@@H](n2nc(-c3ccc(Oc4ccccc4)cc3)c3c(N)ncnc32)C1 [ibrutinib]
How it was run: as §1

Measured: log2 fold change

HIRA (UniProt P54198)
inactive: [1] -0.034 | [2] 0.097 | [3] -0.002 | [4] 0.081 | [5] -0.032 | [6] -0.031 | [7] 0.094 | [8] -0.249 | [9] 0.061 | [10] 0.036 | [11] -0.036 | [12] 0.039 | [13] 0.06 | [14] 0.18 | [15] -0.004 | [16] -0.031 | [17] 0.053 | [18] 0.023

HMGXB4 (UniProt Q9UGU5)
inactive: [1] 0.164 | [2] -0.024 | [3] 0.105 | [4] 0.036 | [6] -0.013 | [7] 0.093 | [8] 0.043 | [13] 0.012

HPS3 (UniProt Q969F9)
inactive: [1] -0.028 | [2] 0.016 | [3] -0.006 | [4] -0.127 | [5] -0.063 | [6] 0.048 | [7] 0.123 | [8] -0.379 | [9] 0.184 | [11] -0.096 | [12] -0.032 | [13] -0.043 | [14] 0.016 | [15] -0.071 | [16] 0.145 | [17] -0.013

HECW2 (UniProt Q9P2P5)
inactive: [1] -0.012 | [2] 0.009 | [3] -0.093 | [4] 0.013 | [5] -0.075 | [6] 0.023 | [7] 0.029 | [8] -0.118 | [9] 0.082 | [11] 0.106 | [12] -0.148 | [13] -0.036 | [14] 0.019 | [15] -0.091 | [16] 0.116 | [17] 0.073

HOOK2 (UniProt Q96ED9)
inactive: [1] 0.101 | [3] -0.391 | [19] -0.096 | [20] -0.094 | [10] -0.041 | [13] -0.026 | [14] -0.006 | [15] -0.106 | [18] -0.102

Quoted from the entries so far (2 entries):
HECW2 (UniProt Q9P2P5)
inactive: [1] -0.012 | [2] 0.009 | [3] -0.093 | [4] 0.013 | [5] -0.075 | [6] 0.023 | [7] 0.029 | [8] -0.118 | [9] 0.082 | [11] 0.106 | [12] -0.148 | [13] -0.036 | [14] 0.019 | [15] -0.091 | [16] 0.116 | [17] 0.073

HOOK2 (UniProt Q96ED9)
inactive: [1] 0.101 | [3] -0.391 | [19] -0.096 | [20] -0.094 | [10] -0.041 | [13] -0.026 | [14] -0.006 | [15] -0.106 | [18] -0.102

Following part:

HSBP1 (UniProt O75506)
inactive: [1] 0.009 | [2] -0.167 | [3] 0.123 | [4] 0.041 | [19] -0.07 | [5] -0.181 | [6] -0.329 | [7] 0.051 | [8] -0.095 | [9] -0.227 | [20] -0.047 | [11] 0.016 | [12] 0.043 | [13] -0.154 | [15] -0.025 | [17] -0.018

HMGN3 (UniProt Q15651)
inactive: [1] -0.049 | [3] 0.065 | [19] -0.018 | [5] -0.015 | [9] 0.016 | [20] 0.014 | [10] -0.009 | [11] 0.037 | [12] -0.05 | [13] 0.027 | [14] -0.006 | [15] 0.053 | [16] 0.024 | [17] 0.089 | [18] -0.066

HES1 (UniProt Q14469)
inactive: [1] -0.014 | [3] -0.025 | [5] -0.124 | [7] -0.316 | [8] -0.035 | [9] -0.138 | [10] -0.031 | [11] 0.104 | [12] 0.031 | [13] 0.022 | [14] -0.013 | [15] -0.116 | [17] -0.082 | [18] -0.082

HIP1R (UniProt O75146)
inactive: [1] -0.009 | [2] 0.051 | [3] 0.012 | [4] 0.013 | [19] -0.033 | [5] 0.005 | [6] -0.038 | [7] -0.041 | [8] 0.008 | [9] -0.018 | [20] -0.008 | [10] -0.006 | [11] -0.012 | [12] -0.057 | [13] -0.016 | [14] 0.041 | [15] 0.013 | [16] 0.005 | [17] 0.018 | [18] -0.012

HPS5 (UniProt Q9UPZ3)
inactive: [1] 0.093 | [2] 1.37 | [3] -0.096 | [4] 0.127 | [19] -0.061 | [5] -0.101 | [6] -0.027 | [9] 0.088 | [20] -0.091 | [10] -0.129 | [11] 0.157 | [12] 0.092 | [13] -0.285 | [14] 0.144 | [15] 0.005 | [16] -0.003 | [17] 0.033 | [18] 0.03

HSD17B7 (UniProt P56937)
inactive: [1] 0.006 | [2] -0.1 | [3] 0.112 | [4] 0.047 | [19] 0.013 | [5] -0.011 | [6] 0.064 | [7] -0.04 | [8] -0.151 | [9] 0.009 | [20] 0.091 | [10] 0.016 | [11] 0.028 | [12] -0.073 | [13] -0.115 | [14] -0.181 | [15] -0.169 | [17] 0.033 | [18] 0.015

HMOX2 (UniProt P30519)
inactive: [1] -0.049 | [2] 0.029 | [3] 0.04 | [4] -0.001 | [19] 0.016 | [5] -0.021 | [6] 0.028 | [7] -0.004 | [8] -0.038 | [9] -0.046 | [20] -0.039 | [10] 0.019 | [11] 0.054 | [12] 0.031 | [13] -0.034 | [14] -0.021 | [15] 0.018 | [16] -0.028 | [17] -0.048 | [18] 0.051

HSPA6 (UniProt P17066)
inactive: [1] -0.005 | [2] -0.002 | [3] 0.018 | [4] -0.002 | [19] -0.013 | [5] -0.022 | [6] 0.005 | [7] -0.004 | [8] 0.008 | [9] -0.023 | [20] -0.027 | [10] -0.027 | [11] -0.041 | [12] -0.012 | [13] 0.018 | [14] -0.036 | [15] 0.16 | [16] 0.027 | [17] 0.014 | [18] -0.003
